Assay results from publication doi:10.1101/2024.07.11.603088.
Results are given in words; binding and its absence hold for the method and conditions named. In cells and extracts the contact can be indirect. A yes stands for co-enrichment or nearness to the bait. Other partners may have been found.

Chains of the proteins cited; added tags and fusions are not shown.
UniProt O08900: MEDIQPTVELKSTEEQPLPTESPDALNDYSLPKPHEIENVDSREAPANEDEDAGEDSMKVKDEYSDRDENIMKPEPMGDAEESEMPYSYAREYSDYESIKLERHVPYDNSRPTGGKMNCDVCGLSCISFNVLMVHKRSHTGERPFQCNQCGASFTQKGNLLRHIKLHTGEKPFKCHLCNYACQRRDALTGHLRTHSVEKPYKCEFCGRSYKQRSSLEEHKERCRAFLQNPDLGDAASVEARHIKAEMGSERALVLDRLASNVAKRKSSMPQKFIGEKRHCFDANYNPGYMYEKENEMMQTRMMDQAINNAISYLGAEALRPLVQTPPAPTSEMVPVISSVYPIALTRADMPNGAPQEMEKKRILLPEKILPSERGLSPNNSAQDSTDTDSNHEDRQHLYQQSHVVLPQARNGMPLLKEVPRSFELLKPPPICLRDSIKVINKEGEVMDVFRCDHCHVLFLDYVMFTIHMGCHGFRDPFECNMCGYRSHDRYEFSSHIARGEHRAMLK
UniProt Q03267: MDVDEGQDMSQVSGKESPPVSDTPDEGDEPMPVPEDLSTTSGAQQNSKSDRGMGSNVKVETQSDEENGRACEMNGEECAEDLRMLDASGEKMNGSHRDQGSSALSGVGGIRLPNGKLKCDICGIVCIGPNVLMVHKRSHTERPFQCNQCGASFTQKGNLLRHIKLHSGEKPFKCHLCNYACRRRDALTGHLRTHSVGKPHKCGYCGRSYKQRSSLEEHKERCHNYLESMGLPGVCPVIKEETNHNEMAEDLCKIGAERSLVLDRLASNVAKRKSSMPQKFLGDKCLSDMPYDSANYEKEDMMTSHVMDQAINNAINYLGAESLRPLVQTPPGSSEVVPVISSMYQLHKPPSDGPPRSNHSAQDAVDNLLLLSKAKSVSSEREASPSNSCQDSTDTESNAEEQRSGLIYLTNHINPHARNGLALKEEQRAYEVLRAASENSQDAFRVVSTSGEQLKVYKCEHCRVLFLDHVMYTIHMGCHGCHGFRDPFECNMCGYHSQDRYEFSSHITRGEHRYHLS

Target: T1, YTHDF2 (mouse, endogenous in CD8 T cells) (mouse (endogenous in mouse CD8 T cells)) (UniProt Q91YT7)
T1 sequence: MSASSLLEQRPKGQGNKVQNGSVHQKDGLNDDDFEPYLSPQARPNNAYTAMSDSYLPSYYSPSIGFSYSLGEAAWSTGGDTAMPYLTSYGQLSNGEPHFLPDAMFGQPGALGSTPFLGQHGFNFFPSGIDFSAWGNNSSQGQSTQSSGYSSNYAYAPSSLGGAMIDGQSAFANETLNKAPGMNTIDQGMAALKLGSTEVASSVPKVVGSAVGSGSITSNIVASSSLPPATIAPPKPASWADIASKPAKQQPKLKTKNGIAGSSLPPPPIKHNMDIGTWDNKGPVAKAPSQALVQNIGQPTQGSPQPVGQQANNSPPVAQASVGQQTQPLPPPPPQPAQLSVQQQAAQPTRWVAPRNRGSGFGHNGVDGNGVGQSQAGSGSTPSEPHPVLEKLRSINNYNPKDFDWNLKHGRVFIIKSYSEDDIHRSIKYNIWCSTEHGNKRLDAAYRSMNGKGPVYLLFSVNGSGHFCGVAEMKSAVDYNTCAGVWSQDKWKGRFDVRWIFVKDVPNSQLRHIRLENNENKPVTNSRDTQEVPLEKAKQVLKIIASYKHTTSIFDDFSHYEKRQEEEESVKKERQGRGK
Test: affinity purification with mass spectrometry

binding | Substance
binds | Aiolos (IKZF3) (mouse, endogenous in CD8 T cells) (from UniProt O08900 1-507)
binds | Ikaros (IKZF1) (mouse, endogenous in CD8 T cells) (from UniProt Q03267 1-517)
